Measurements reported in PubChem BioAssay AID652243 (Drosophila RNAi Screening Center, 2013).

Aim: 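Fly regulators of androgen-dependent reporter output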 (primary screen)
System: Drosophila S2R+ cells
Reagents: long dsRNA against Drosophila genes
Duration: 72 h (48 h, then 24 h hormone)
Treatment: synthetic androgen R1881 at 10 nM for 24 h
Measurement: 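Per-well raw luminescence of the androgen-driven firefly reporter and of the Renilla control, two replicates each, without normalisation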
Direction: firefly reporter light: higher = more light from androgen-responsive reporter; Renilla control light: higher = more constitutive control signal (cell number, transfection)
Call rule: 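Hit when the log firefly-to-Renilla ratio dropped or increased by a fixed fold versus the mean of GFP or LacZ controls across duplicate plates; lowering cut given as 1.5 and as 3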
Meaning of the calls: active = hit: reporter lowered or raised; inactive = no hit
In all, the deposit lists about 24,000 reagents; this is an unselected part of those that have a named target and a result. In the full data, 246 (1%) are marked active. 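Plates not normalised; calls are printed but the firefly/Renilla ratio behind them is not deposited; fold cut for lowering reported inconsistently.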 The raw values are shown without normalisation. Not stated in the record: the amount of reagent.

Against CG14440 [DRSC23008] the deposit lists firefly reporter light, replicate 1 = 7.65e5; firefly reporter light, replicate 2 = 9.65e5; Renilla control light, replicate 1 = 1.14e6; Renilla control light, replicate 2 = 1.50e6; inactive.
After knock-down of CG14440 [DRSC23009] the results were firefly reporter light, replicate 1 = 4.87e5; firefly reporter light, replicate 2 = 8.10e5; Renilla control light, replicate 1 = 9.70e5; Renilla control light, replicate 2 = 1.28e6; inactive.
With knock-down of CG14440 [DRSC25806], the record shows firefly reporter light, replicate 1 = 3.16e5; firefly reporter light, replicate 2 = 4.06e5; Renilla control light, replicate 1 = 8.38e5; Renilla control light, replicate 2 = 6.27e5; inactive.
Depletion of CG43336 [DRSC15765] gave: firefly reporter light, replicate 1 = 1.85e5; firefly reporter light, replicate 2 = 1.87e5; Renilla control light, replicate 1 = 3.26e6; Renilla control light, replicate 2 = 3.05e6; inactive.
Argk2 [DRSC10483] showed firefly reporter light, replicate 1 = 3.72e5; firefly reporter light, replicate 2 = 1.98e5; Renilla control light, replicate 1 = 3.13e6; Renilla control light, replicate 2 = 1.64e6; inactive.
For Argk2 [DRSC23349], the values are firefly reporter light, replicate 1 = 6.89e5; firefly reporter light, replicate 2 = 7.83e5; Renilla control light, replicate 1 = 5.71e5; Renilla control light, replicate 2 = 8.83e5; inactive.
Argk2 [DRSC28762] scored firefly reporter light, replicate 1 = 6.58e5; firefly reporter light, replicate 2 = 6.41e5; Renilla control light, replicate 1 = 1.33e6; Renilla control light, replicate 2 = 1.08e6; inactive.
Against CG1137 [DRSC12529] the deposit lists firefly reporter light, replicate 1 = 46846; firefly reporter light, replicate 2 = 46073; Renilla control light, replicate 1 = 9.82e5; Renilla control light, replicate 2 = 7.17e5; inactive.
CG1137 [DRSC29434] scored firefly reporter light, replicate 1 = 4.14e5; firefly reporter light, replicate 2 = 4.36e5; Renilla control light, replicate 1 = 1.22e6; Renilla control light, replicate 2 = 1.22e6; inactive.
After knock-down of RpL7 [DRSC03417], the record shows firefly reporter light, replicate 1 = 1.23e5; firefly reporter light, replicate 2 = 1.09e5; Renilla control light, replicate 1 = 6.76e5; Renilla control light, replicate 2 = 7.83e5; inactive.
RpL7 [DRSC29340] scored firefly reporter light, replicate 1 = 2.29e5; firefly reporter light, replicate 2 = 3.46e5; Renilla control light, replicate 1 = 5.25e5; Renilla control light, replicate 2 = 5.25e5; inactive.
Ass [DRSC28238] showed firefly reporter light, replicate 1 = 2.73e5; firefly reporter light, replicate 2 = 5.55e5; Renilla control light, replicate 1 = 7.79e5; Renilla control light, replicate 2 = 1.92e6; inactive.
CG14431 [DRSC17925] gave firefly reporter light, replicate 1 = 92671; firefly reporter light, replicate 2 = 1.21e5; Renilla control light, replicate 1 = 2.91e6; Renilla control light, replicate 2 = 2.54e6; inactive.
After knock-down of CG14431 [DRSC23593], the screen gave firefly reporter light, replicate 1 = 7.67e5; firefly reporter light, replicate 2 = 8.32e5; Renilla control light, replicate 1 = 1.10e6; Renilla control light, replicate 2 = 1.16e6; inactive.

Reprinted from the entries so far (2 entries):
RpL7 [DRSC29340] — firefly reporter light, replicate 1 = 2.29e5; firefly reporter light, replicate 2 = 3.46e5; Renilla control light, replicate 1 = 5.25e5; Renilla control light, replicate 2 = 5.25e5; Outcome = inactive
Ass [DRSC28238] — firefly reporter light, replicate 1 = 2.73e5; firefly reporter light, replicate 2 = 5.55e5; Renilla control light, replicate 1 = 7.79e5; Renilla control light, replicate 2 = 1.92e6; Outcome = inactive
